For one substance, binding results are on record in publication PMC7202510.

Amino acid sequences for entries named in this document (tags omitted).
UniProt P04792: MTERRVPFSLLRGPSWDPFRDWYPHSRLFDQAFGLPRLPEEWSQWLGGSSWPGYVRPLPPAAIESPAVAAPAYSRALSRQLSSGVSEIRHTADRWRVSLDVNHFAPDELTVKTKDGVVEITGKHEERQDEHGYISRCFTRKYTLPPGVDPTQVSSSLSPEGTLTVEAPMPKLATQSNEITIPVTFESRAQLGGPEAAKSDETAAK

This assay addresses T1, High-mobility group nucleosome-binding domain 5 (HMGN5), His-tagged (UniProt P82970).
T1 sequence: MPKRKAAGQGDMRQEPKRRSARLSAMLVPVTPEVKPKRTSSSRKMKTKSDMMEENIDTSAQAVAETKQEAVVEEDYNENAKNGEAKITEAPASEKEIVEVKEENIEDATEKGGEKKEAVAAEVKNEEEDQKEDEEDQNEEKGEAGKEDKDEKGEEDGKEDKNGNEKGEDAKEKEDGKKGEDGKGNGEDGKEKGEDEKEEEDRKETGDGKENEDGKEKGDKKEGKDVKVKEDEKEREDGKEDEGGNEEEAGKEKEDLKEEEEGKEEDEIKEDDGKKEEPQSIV
In words: pull-down; results: GST-Hsp27 incubated with His-HMGN5 at 4 °C for 4 h, HMGN5 captured by Ni-NTA resin, Hsp27 detected by immunoblotting; methods: GST-fused protein on glutathione Sepharose 4B beads, His-fused protein in 20 mM Tris, 100 mM NaCl, 1 mM DTT, 1 mM EDTA, 30 min; both purified.

No constants are given. Whether binding was seen depends on the method and setting. Some binding calls cover weakened binding; strength is not graded here. Where a sequence is shown, tags or fusion partners need not be part of it.

“Heat shock protein 27 (Hsp27), GST-tagged (from UniProt P04792 1-205)”: the binding entry was “binds”.
